# Results of single-concentration screens

Chains of the proteins cited; added tags and fusions are not shown. Residues count along the entry.
UniProt P9WNZ1, whole entry: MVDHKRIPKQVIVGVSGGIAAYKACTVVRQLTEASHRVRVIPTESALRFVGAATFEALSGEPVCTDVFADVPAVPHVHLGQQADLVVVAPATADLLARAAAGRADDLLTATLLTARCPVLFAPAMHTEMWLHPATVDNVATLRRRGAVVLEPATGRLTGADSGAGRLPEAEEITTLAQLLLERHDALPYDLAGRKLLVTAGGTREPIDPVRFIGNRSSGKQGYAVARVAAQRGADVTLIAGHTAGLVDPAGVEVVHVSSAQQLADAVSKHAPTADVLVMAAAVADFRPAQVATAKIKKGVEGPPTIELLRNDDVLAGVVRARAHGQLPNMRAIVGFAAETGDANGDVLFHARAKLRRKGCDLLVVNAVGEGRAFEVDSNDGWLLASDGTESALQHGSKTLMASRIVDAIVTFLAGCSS
UniProt I6X8D2, whole entry: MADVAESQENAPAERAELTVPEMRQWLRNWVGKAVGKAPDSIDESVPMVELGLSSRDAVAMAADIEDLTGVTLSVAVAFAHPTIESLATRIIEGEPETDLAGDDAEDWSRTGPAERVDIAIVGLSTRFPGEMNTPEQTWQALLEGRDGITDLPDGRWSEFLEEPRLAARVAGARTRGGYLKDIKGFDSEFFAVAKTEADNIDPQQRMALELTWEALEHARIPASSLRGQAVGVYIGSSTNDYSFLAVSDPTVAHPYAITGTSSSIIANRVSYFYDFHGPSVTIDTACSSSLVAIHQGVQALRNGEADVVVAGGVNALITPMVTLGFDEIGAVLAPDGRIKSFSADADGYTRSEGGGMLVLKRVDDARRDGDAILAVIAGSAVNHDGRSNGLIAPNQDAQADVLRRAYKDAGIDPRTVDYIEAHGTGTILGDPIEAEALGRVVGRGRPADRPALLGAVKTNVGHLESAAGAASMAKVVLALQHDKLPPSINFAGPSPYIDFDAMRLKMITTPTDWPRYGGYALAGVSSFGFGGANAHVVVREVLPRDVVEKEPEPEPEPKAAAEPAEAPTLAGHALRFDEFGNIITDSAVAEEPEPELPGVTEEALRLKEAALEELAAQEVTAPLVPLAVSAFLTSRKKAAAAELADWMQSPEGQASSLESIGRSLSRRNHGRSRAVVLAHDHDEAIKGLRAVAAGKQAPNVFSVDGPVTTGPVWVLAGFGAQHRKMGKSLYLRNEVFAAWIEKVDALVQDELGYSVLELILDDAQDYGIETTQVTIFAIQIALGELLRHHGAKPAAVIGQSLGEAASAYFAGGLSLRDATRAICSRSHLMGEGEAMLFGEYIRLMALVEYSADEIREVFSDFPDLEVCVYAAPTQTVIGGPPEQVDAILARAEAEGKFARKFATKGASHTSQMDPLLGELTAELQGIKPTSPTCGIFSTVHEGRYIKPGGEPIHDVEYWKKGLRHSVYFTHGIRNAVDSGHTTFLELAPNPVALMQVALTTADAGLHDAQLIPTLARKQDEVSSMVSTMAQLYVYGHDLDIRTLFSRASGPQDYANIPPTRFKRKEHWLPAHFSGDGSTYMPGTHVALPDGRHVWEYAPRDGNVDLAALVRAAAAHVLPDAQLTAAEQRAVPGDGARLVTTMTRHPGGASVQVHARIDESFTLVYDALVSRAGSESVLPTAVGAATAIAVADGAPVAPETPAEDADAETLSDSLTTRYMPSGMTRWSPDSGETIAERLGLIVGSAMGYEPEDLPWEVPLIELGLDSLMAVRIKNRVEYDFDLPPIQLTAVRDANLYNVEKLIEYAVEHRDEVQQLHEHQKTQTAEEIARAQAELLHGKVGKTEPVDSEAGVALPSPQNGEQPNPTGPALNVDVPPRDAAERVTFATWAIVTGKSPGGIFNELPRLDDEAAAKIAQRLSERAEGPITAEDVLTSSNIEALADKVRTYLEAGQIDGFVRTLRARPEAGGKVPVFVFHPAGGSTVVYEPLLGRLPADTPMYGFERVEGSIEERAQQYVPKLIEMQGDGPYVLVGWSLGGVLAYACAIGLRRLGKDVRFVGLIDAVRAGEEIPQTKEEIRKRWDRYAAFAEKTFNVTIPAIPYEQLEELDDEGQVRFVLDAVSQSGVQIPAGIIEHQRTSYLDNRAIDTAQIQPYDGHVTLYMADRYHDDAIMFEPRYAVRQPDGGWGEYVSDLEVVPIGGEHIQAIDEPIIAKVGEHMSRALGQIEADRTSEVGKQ
UniProt P9WFT3, whole entry: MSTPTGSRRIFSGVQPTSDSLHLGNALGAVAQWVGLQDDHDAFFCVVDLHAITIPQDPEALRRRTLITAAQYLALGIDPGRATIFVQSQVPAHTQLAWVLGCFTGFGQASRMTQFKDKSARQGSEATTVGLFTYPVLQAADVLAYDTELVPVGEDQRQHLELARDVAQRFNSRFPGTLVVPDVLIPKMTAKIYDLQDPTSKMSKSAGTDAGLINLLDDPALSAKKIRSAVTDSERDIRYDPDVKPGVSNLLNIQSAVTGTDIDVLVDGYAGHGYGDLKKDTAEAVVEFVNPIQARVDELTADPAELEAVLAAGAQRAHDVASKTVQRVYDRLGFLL
UniProt A4I591, 1-473: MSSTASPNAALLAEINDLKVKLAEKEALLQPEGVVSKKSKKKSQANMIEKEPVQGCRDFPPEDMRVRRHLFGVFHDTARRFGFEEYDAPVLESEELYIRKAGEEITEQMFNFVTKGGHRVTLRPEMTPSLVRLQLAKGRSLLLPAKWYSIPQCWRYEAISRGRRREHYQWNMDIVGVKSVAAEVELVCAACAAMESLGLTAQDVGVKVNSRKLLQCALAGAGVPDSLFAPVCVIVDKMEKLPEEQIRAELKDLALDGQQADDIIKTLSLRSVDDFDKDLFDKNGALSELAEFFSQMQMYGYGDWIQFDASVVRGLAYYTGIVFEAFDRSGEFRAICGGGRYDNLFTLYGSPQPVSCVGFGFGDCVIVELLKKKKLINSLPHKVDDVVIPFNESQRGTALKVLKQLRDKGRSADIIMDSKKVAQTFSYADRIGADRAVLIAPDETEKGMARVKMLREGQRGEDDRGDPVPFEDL

A: 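Enzyme assay of CoaBC with a phosphate dye (Biomol Green) read at 650 nm. Target: Coenzyme A biosynthesis protein CoaBC, Mycobacterium tuberculosis (UniProt P9WNZ1). Compounds at 30 µM. Higher reads as stronger inhibition, judged from the few compounds that gave an IC50. Most strong results did not repeat in a second test. About 67,000 compounds were tested under these conditions; 0.06% (about 40) showed 50% or more at least once.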
B: 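Polyketide synthase Pks13, Mycobacterium tuberculosis (UniProt I6X8D2). Enzyme assay of the thioesterase domain of polyketide synthase 13; the read-out is not stated. Compounds at 30 µM. The record gives no direction; the compounds picked for IC50 retests had high values, so higher reads as stronger inhibition. Of about 67,000 compounds tested this way, about 300 (0.46%) reached 50% or more in at least one test.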
C: 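Enzyme assay of tryptophanyl-tRNA synthetase; the read-out is not stated. Target: Tryptophan-tRNA ligase, Mycobacterium tuberculosis (UniProt P9WFT3). Compounds at 10 µM. Higher most likely means stronger inhibition; the record gives no direction and few retests gave an IC50. Size under these conditions: about 65,000 compounds, about 64 of them at 50% or above in at least one test.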
D: 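Histidine-tRNA ligase, Leishmania infantum (UniProt A4I591). Enzyme assay of histidyl-tRNA synthetase; the read-out is not stated. Compounds at 30 µM. Direction is inferred from retests: higher values go with stronger inhibition. The assay is labelled LdHisRS but filed under L. infantum. About 69,000 compounds were tested under these conditions; 0.6% (about 410) showed 50% or more at least once.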

Each number is a percent effect as filed. The record does not define 0% and 100%; most values in the screen are far below 50% and negative numbers occur (in some assays of this library far below -100). This is an unselected part of the compounds tested. Two or more numbers in one place are separate tests of the same structure; such repeats can differ widely.

{"compound": "COC1CCN(CCNC(=O)C2CCCCC2)CC1", "A": 5.696, "B": -26.2, "C": -3.972, "D": 1.299}
{"compound": "c1cncc(COC[C@H]2CC[C@H]3[C@H](CCN3Cc3nccs3)O2)c1", "A": 1.607, "B": 5.904, "C": -5.838, "D": 5}
{"compound": "O=C1OCCN1Cc1nc(C2(c3ccc(F)cc3)CCOC2)no1", "stereo": "centres unmarked", "A": 2.39, "B": -21.82, "C": 1.361, "D": 21.24}
{"compound": "O=C(Cc1ccsc1)N1CCOC(c2nc(-c3ncccn3)no2)C1", "stereo": "centres unmarked", "A": 3.148, "B": 15.09, "D": 18.56}
{"compound": "COC(=O)c1ccc(N(C(=O)c2cscn2)C(C)C)c(C)c1", "A": 1.146, "B": -29.08, "C": -4.601, "D": 3.109}
{"compound": "O=C(NCc1cc[nH]n1)N1CCCC(N2CCCC2)C1", "stereo": "centres unmarked", "A": 7.791, "B": -8.742, "C": -6.823, "D": 11.61}
{"compound": "CCSc1cc(C(=O)NCc2ccccc2O)ccn1", "A": -6.61, "B": -18.46, "C": 0.784, "D": 15.38}
{"compound": "CCN1CCN(c2ccc(C(=O)NC(C)c3ccncc3)cc2)CC1", "stereo": "centres unmarked", "A": 1.225, "B": -5.657, "C": 2.84, "D": 20}
{"compound": "CCc1nc(C)cn1C(=O)Nc1ccc(C)cc1", "A": -2.822, "B": -14.69, "D": 12.37}
{"compound": "CCc1noc(CNc2cc3c(cc2Cl)OCCCO3)n1", "A": 4.263, "B": -13.21, "C": -0.5727, "D": 5.376}
{"compound": "Cn1cc(-c2ncc3c(c2C(=O)O)CCN(Cc2ccccn2)C3)cn1", "A": 6.559, "B": -1.023, "D": 15.84}
{"compound": "O=C(O)C1CCN(c2nc3c(-c4ccccc4F)csc3c(=O)[nH]2)CC1", "A": "28.54 & 31.75", "B": 3.751, "C": -4.939, "D": 3.478}
{"compound": "CCN1CCN(C(=O)C(C)SC)CC1", "stereo": "centres unmarked", "A": 5.042, "B": -40.41, "C": -4.46, "D": 5.983}
{"compound": "Cc1nn(C)c2nc(N3CCC(C(O)c4ccccn4)CC3)sc12", "stereo": "centres unmarked", "A": 0.2571, "B": -11.57, "C": -6.063, "D": 9.375}
{"compound": "O=S(=O)(c1ccccc1)N1C[C@@H]2COC[C@]2(COCC2CC2)C1", "A": 9.514, "B": -14.28, "C": 9.937, "D": 15.79}
{"compound": "CCC(CO)n1cnc2scc(C)c2c1=O", "stereo": "centres unmarked", "A": 0.241, "B": 1.627, "C": -0.5825, "D": 7.692}
{"compound": "Cn1ncc2c(=O)[nH]c(CN3CCc4sccc4C3)nc21", "A": 6.122, "C": 11.51, "D": 18.18}

Repeated from the top, 2 entries:

{"compound": "COC1CCN(CCNC(=O)C2CCCCC2)CC1", "A": 5.696, "B": -26.2, "C": -3.972, "D": 1.299}
{"compound": "c1cncc(COC[C@H]2CC[C@H]3[C@H](CCN3Cc3nccs3)O2)c1", "A": 1.607, "B": 5.904, "C": -5.838, "D": 5}

The values are deposited in ChEMBL (CHEMBL3988442, “University of Dundee, Small-Polar-MMV Screening Library” (2021)).